According to article PMC9501056:
Results are given in words; binding and its absence hold for the method and conditions named. Binding seen in cells or lysates may run through a third protein.

Columns and labels:
[1] = target: T1, BEI (Oryza sativa subsp. indica cv. IR36 (endogenous in developing seeds)) (UniProt Q01401); assay: co-IP; soluble proteins of developing seeds of WT (IR36) at 10 DAF incubated with isozyme-specific antibodies and protein A magnetic beads; washed with PBS pH 7.4; Western blotting
T1 sequence: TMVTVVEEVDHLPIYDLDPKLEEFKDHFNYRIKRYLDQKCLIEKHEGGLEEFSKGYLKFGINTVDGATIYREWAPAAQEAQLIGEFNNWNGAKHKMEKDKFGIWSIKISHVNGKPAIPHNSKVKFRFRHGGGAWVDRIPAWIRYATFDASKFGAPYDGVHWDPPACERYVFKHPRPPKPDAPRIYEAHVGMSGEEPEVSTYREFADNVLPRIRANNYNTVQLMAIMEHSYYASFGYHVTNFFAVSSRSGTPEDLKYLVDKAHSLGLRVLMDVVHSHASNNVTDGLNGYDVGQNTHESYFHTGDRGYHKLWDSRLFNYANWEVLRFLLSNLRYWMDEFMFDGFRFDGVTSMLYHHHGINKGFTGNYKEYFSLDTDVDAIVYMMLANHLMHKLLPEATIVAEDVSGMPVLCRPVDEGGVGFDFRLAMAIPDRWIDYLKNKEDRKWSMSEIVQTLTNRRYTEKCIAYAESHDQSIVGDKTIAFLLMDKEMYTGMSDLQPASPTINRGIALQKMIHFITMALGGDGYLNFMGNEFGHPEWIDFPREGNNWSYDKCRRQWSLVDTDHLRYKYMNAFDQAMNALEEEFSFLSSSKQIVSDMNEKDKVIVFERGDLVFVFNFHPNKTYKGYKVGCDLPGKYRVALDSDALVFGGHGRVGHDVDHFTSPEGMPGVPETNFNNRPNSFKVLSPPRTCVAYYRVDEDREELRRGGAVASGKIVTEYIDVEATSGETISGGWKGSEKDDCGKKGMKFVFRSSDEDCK

[2] = target: SSIIIa (Oryza sativa subsp. indica cv. IR36 (endogenous in developing seeds)); assay: as above
[3] = target: T2, SSIIa (Oryza sativa subsp. indica cv. IR36 (endogenous in developing seeds)) (UniProt P0C586); assay: as above
T2 sequence: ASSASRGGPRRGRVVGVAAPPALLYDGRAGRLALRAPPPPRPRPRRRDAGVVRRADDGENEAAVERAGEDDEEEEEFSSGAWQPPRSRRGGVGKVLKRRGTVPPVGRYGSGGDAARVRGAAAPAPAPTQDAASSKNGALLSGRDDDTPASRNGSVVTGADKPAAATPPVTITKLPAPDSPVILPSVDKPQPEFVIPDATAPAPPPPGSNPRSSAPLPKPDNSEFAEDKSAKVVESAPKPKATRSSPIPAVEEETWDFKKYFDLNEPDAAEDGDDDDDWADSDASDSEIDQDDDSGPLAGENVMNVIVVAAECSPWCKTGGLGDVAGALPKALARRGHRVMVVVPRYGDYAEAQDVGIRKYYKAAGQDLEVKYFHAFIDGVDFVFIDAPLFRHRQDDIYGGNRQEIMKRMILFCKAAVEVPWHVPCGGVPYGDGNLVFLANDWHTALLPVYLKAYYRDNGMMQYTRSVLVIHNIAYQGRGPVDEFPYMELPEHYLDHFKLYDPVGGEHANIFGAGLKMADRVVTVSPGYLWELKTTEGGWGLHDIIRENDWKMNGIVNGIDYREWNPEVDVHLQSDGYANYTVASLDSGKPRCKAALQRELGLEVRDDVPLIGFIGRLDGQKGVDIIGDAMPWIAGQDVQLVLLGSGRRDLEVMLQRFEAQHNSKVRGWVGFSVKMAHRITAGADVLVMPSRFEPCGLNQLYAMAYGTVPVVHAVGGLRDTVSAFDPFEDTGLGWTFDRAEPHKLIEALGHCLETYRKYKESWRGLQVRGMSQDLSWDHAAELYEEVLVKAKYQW

[4] = target: T1, BEI (Oryza sativa subsp. indica cv. IR36 (endogenous in developing seeds)); assay: co-IP; soluble proteins of developing seeds of the be2b mutant at 5 DAF incubated with isozyme-specific antibodies and protein A magnetic beads; washed with PBS pH 7.4; Western blotting
[5] = target: SSIIIa (Oryza sativa subsp. indica cv. IR36 (endogenous in developing seeds)); assay: as above
[6] = target: T2, SSIIa (Oryza sativa subsp. indica cv. IR36 (endogenous in developing seeds)); assay: as above
[7] = substrate: T3, SSI (Oryza sativa subsp. indica cv. IR36 (endogenous in developing seeds)) (UniProt A2Y9M4); assay: as above
T3 sequence: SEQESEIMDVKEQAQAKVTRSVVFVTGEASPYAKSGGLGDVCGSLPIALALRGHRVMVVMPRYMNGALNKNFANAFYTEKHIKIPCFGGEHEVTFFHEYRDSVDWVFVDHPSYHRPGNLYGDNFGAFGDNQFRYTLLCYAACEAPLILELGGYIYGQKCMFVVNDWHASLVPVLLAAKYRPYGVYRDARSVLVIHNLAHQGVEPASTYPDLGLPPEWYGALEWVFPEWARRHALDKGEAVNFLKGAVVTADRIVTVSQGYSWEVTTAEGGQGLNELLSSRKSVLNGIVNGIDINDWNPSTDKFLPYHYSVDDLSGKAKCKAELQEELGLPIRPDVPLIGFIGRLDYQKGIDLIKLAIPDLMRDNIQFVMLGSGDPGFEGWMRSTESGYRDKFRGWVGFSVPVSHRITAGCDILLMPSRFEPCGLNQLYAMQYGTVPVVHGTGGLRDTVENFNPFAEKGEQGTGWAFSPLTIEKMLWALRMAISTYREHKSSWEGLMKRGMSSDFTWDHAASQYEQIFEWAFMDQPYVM

[8] = substrate: T3, ; assay: co-IP; soluble proteins of developing seeds of the be2b mutant at 15 DAF incubated with isozyme-specific antibodies and protein A magnetic beads; washed with PBS pH 7.4; Western blotting

Measured: binding

B1: ISA1 (enzyme, UniProt D0TZF0 55-803)
chain: SVASAVEVGVGEDEEEGVEEEEEEVEAVVMPERYALGGACRVLAGMPAPLGATALDGGVNFAVYSAGASAASLCLFTPDDLEADEVTEEVPLDPLFNRTGNVWHVFIEGELHNMLYGYRFDGMFAPHCGQYFDVSNVVVDPYAKAVISRGEYGVPGPGGDCWPQMAGMIPLPYSTFDWQGDLPLRYPQKDLVIYEMHLRGFTKHSSSNVEHPGTYIGAISKLDYLKELGVNCVELMPCHEFNELEYFSCSSKMNFWGYSTINFFSPMIRYSSGGIRNCGRDAINEFKTFVREAHKRGIEVIMDVVFNHTAEGNEKGPILSFRGIDNSTYYMLAPKGEFYNYSGCGNTFNCNHPVVREFIVDCLRYWVTEMHVDGFRFDLASIMTRGCSLWDPVNVYGSPVEGDMTTTGTPLATPPLIDMISNDPILGDVKLIAEAWDAGGLYQVGQFPHWKIWSEWNGKYRDIVRQFIKGTDGFAGGFAECLCGSPHLYQAGGRKPWHSINFVCAHDGFTLADLVTYNKKYNSSNGEDNRDGENHNLSWNCGEEGEFAGLSVKRLRKRQMRNFFVSLMVSQGVPMFYMGDEYGHTKGGNNNTYCHDHYVNYFRWDKKEESSDLQRFCSLMTKFRKQCESLGLADFPTAQRLHWHGHQPGKPDWSETSRFVAFSTKDETKGEIYVAFNASHLPAVVGLPERPGYRWEPLVDTGKPAPYDFLTDDLPDRAHAVHLFSHFLNSNLYPMLSYSSIILELQPDD
no binding: [1] | [2] | [3] | [4] | [5] | [6] | [7] | [8]
